Source: PMC5290737, “Surface mediated cooperative interactions of drugs enhance mechanical forces for antibiotic action” (Scientific Reports, 2017)

Experiments:
[1] = tested on: vancomycin-susceptible receptor (VSR); test: Cantilever surface stress assay, antibiotic binding to surface-bound VSR; conditions: equation (2)
Source text: To probe different pathways of signal-transduction central to the efficacy of recognition mechanisms and therapeutic agents, we used cantilever force-based technology. Because of its nanometre strain sensitivity, this technology can directly measure the smallest changes in mechanical strain caused by specific antibiotic binding. The principles of force transduction and measurements are well established[18][19][20] and many studies focused on cantilever sensors have been published. Unlike conventional methods such as 1H–NMR spectroscopy, enzyme-linked immunosorbent assays (ELISA)[29] or surface plasmon resonance (SPR)[30] which measure optical signatures of chemical binding, cantilever technology has the capacity to resolve forces at the level of individual hydrogen bonds, making it uniquely suited to provide important insight into force transduction mechanisms, such as cell wall strain in response to antibiotic binding. […]
(§1) Here, Ksurf is raised to the power n to ensure that it maintains the dimension of concentration as n varies. […] The calculated Ksurf for Ori binding to VSR is 40 ± 10 nM, which is 25 times stronger than for Van where Ksurf is 1.0 ± 0.3 μM. […]

[2] = tested on: vancomycin-resistant receptor (VRR); test: Cantilever surface stress assay, antibiotic binding to surface-bound VRR; conditions: equation (2)
Source text: To probe different pathways of signal-transduction central to the efficacy of recognition mechanisms and therapeutic agents, we used cantilever force-based technology. Because of its nanometre strain sensitivity, this technology can directly measure the smallest changes in mechanical strain caused by specific antibiotic binding. The principles of force transduction and measurements are well established[18][19][20] and many studies focused on cantilever sensors have been published. Unlike conventional methods such as 1H–NMR spectroscopy, enzyme-linked immunosorbent assays (ELISA)[29] or surface plasmon resonance (SPR)[30] which measure optical signatures of chemical binding, cantilever technology has the capacity to resolve forces at the level of individual hydrogen bonds, making it uniquely suited to provide important insight into force transduction mechanisms, such as cell wall strain in response to antibiotic binding. Moreover, in contrast to direct current or low-frequency signals, which cannot probe beyond electrical double layers formed by screening salts, mechanical signaling is sensitive to ligands even when they are located at distance of ~1 nm or more from the sensor surface (Fig. 1d). Measurements were performed using cantilevers functionalized with self-assembled monolayers (SAM) of VSR, VRR or reference polyethylene glycol (PEG) (see methods & materials, Supplementary Information). The specificity of mechanical signaling was achieved by performing measurements in differential mode, where the bending response of the reference PEG-coated cantilevers, (known to reduce nonspecific drug adsorption[8][14][34]) was subtracted from VSR- and VRR-coated cantilever signals (see cantilever measurement procedure, method section). […]
as §1

Row | Molecule | Hill coeff. (n) [1] | Hill coeff. (n) [2]
1 | CN[C@H](CC(C)C)C(=O)N[C@H]1C(=O)N[C@@H](CC(N)=O)C(=O)N[C@H]2C(=O)N[C@H]3C(=O)N[C@H](C(=O)N[C@H](C(=O)O)c4cc(O)cc(O)c4-c4cc3ccc4O)[C@H](O[C@H]3C[C@](C)(N)[C@@H](O)[C@H](C)O3)c3ccc(c(Cl)c3)Oc3cc2cc(c3O[C@@H]2O[C@H](CO)[C@@H](O)[C@H](O)[C@H]2O[C@H]2C[C@](C)(NCc3ccc(-c4ccc(Cl)cc4)cc3)[C@@H](O)[C@H](C)O2)Oc2ccc(cc2Cl)[C@H]1O [Ori, oritavancin] | 1.8 ± 0.4 | 2.7 ± 0.6
2 | CN[C@H](CC(C)C)C(=O)N[C@H]1C(=O)N[C@@H](CC(N)=O)C(=O)N[C@H]2C(=O)N[C@H]3C(=O)N[C@H](C(=O)N[C@H](C(=O)O)c4cc(O)cc(O)c4-c4cc3ccc4O)[C@H](O)c3ccc(c(Cl)c3)Oc3cc2cc(c3O[C@@H]2O[C@H](CO)[C@@H](O)[C@H](O)[C@H]2O[C@H]2C[C@](C)(N)[C@H](O)[C@H](C)O2)Oc2ccc(cc2Cl)[C@H]1O [Van, vancomycin] | 1.0 ± 0.2 | 1.2 ± 0.2
3 | ristomycin |  | 0.7 ± 0.2
